# Laboratory results as given in PubChem BioAssay AID493014 (National Center for Advancing Translational Sciences (NCATS), 2011).
# Some of the results follow. These are further read-outs of the screen, such as a control signal, another cell line or another target. No call is given for them. The list favours compounds with an active or inconclusive main result. Potencies come from curve fits of mixed quality, noted in brackets.
# Test: qHTS Assay to Find Inhibitors of Chronic Active B-Cell Receptor Signaling
# Conditions: ABC-DLBCL IkBa-CBG/CBR reporter, luminescence ratio (green luciferase fused to IkBa over red control in TMD8 lymphoma cells), 4 h
# Procedure, shortened: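 Concentration-response series (up to 46 uM) were applied to TMD8 dual-reporter cells for 4 h at 37C with doxycycline. Green/red ratio, after filter-overlap correction, defined %Activity; red signal alone was normalised to basal cells and zero luminescence.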
# [1] = measured here: CBR red luminescence, cell number
# [2] = measured here: IkBa-CBG green luminescence
Structure (SMILES),AC50 [1],AC50 [2]
N#CC1=C2SC=C(c3ccc(Br)cc3)N2CCCC1=O,"1.58 µM [rising, partial curve]",–
CCc1noc(C)c1C(=O)Nc1ncc(C)s1,"0.164 µM [rising, full curve, poor fit]",–
CCCn1c(SC/C(O)=C(\C#N)c2nc3ccccc3[nH]2)n[nH]c1=O,"7.94 µM [falling, partial curve]",–
O=C(COc1ccc(Cl)cc1)Nc1ccc2c(c1)C(=O)NC2=O,"1.78 µM [falling, full curve, poor fit]",–
Nc1c(C(=O)Nc2cccc(F)c2)nnn1-c1ccc2c(c1)OCCO2,"6.31 µM [falling, full curve, poor fit]",–
COCc1ccc(C(=O)NC2CC(C)(C)Cc3c2cnn3-c2ccc(C)cc2)o1 (stereo unspecified),"35.5 µM [falling, single point]",–
COC(=O)c1ccc(/C=N/Nc2nc3ccccc3[nH]2)cc1,"35.5 µM [falling, single point]",–
COc1ccc(O)c(C(=O)c2cnc3nc4ccccc4n3c2)c1,"0.58 µM [rising, full curve, poor fit]",–
CCOC(=O)C1CCN(C(=O)C2CCN(S(=O)(=O)c3c(C)noc3C)CC2)CC1,"4.11 µM [falling, single point]",–
CCOc1ccc(OCc2ccc(C(=O)N(CC)CC)cc2)cc1,"20 µM [falling, partial curve, poor fit]",–
CCC(=O)Nc1cccc(NC(=S)NC(=O)c2ccc(Cl)cc2Cl)c1,"6.51 µM [rising, single point]",–
CCOc1ccc(NC(=O)CN(C)CC(=O)NC(C)c2ccccc2)cc1OCC (stereo unspecified),"35.5 µM [rising, single point]",–
O=c1oc2ccccc2c2c1SC(C(F)(F)F)C2 (stereo unspecified),"5.62 µM [rising, partial curve, poor fit]",–
CCN1CCN(C(=O)CS(=O)(=O)Cc2nc(-c3ccc(C)cc3)oc2C)CC1,"1.46 µM [rising, partial curve, poor fit]",–
CN(C)c1ccc(CN(C(=O)/C=C/c2ccccc2Cl)C2CCS(=O)(=O)C2)cc1 (stereo unspecified),"35.5 µM [falling, single point]",–
COC(=O)c1cc(NC(=O)Cc2coc3cc(OC)ccc23)cc(C(=O)OC)c1,"2.82 µM [falling, full curve]",–
CCOC(=O)Cc1csc(NC(=S)NC(=O)c2ccccc2Br)n1,–,"16.4 µM [falling, single point]"
CC(C)C[C@H]1CN=C(Nc2ccccc2)N1CC1CCCCC1,"10 µM [falling, partial curve]",–
O=C(Nc1ccc(C(F)(F)F)cc1)c1cccc(-n2cnnn2)c1,"2.31 µM [rising, partial curve, poor fit]",–
O=C(CSc1nc(Cc2ccccc2)nc2ccccc12)c1ccc2c(c1)OCCO2,"23.1 µM [falling, partial curve, poor fit]",–
CCN1C(=O)[C@H]2[C@@H](c3ccc(C)cc3)N3C(=O)N(c4cccc(Br)c4)C(=O)[C@@]3(Cc3ccccc3)[C@H]2C1=O,"16.4 µM [falling, single point]",–

Structure (SMILES),AC50 [1],AC50 [2]
O=C(Nc1cccc(-n2cccn2)c1)C1CCCN(Cc2cc3ccccc3[nH]2)C1 (stereo unspecified),"35.5 µM [falling, single point]",–
COc1ccc(N(CC(=O)N/N=C/c2ccccc2F)S(=O)(=O)c2ccccc2)cc1,"11.2 µM [falling, single point]",–
COc1ccc(NC(=O)Nc2cccc3ccccc23)cc1S(N)(=O)=O,"2 µM [falling, full curve]",–
COC(=O)C1CCN(C(=O)/C=C/c2ccc3c(c2)OCO3)CC1,"1.12 µM [falling, full curve]",–
Nc1cc(N)nc(SCCOc2ccccc2F)n1,"2.31 µM [rising, partial curve, poor fit]",–
O=C(COC(=O)Cc1ccccc1F)Nc1cc(S(=O)(=O)N2CCOCC2)ccc1N1CCCC1,"20.6 µM [rising, partial curve, poor fit]",–
Cc1ccc(CNC(=O)Cc2ccc(-c3ccccc3)cc2)cc1,"2.82 µM [rising, full curve]",–
Nc1cc(Cl)ccc1Oc1ccc2ccccc2c1,"1.16 µM [rising, full curve]",–
CCCC(=O)OC/C(O)=C(\C#N)c1nc2ccccc2[nH]1,"7.08 µM [falling, partial curve, poor fit]",–
Cc1ccccc1NC(=O)C1(NC(=O)c2cccc(N3C(=O)CSC3c3ccccc3)c2)CCCCC1 (stereo unspecified),"11.2 µM [falling, partial curve, poor fit]",–
O=C1CC(c2ccc(OCCCCCOc3ccc(C4CC(=O)NC4=O)cc3)cc2)C(=O)N1 (stereo unspecified),"11.2 µM [falling, partial curve, poor fit]",–
Fc1ccccc1OCCSc1nnnn1-c1ccccc1,"1.64 µM [rising, partial curve, poor fit]",–
CCN(CC)S(=O)(=O)c1cccc(C(=O)OCC(=O)NCc2ccccc2OC)c1,"0.058 µM [rising, full curve, poor fit]",–
O=[N+]([O-])c1ccc(Nc2ccc3ccccc3c2)nc1,"0.184 µM [rising, full curve]",–
CCCCOc1ccc(C(=O)NCC(=O)NCC(c2ccc(OC)cc2)N2CCOCC2)cc1 (stereo unspecified),"7.31 µM [rising, partial curve]",–
CN1CCC(N2CCN(c3cccc(C(F)(F)F)c3)CC2)CC1,"20.6 µM [rising, single point]",–
Cc1ccc(CCNC(=O)c2nnn(-c3cc(C)cc(C)c3)c2N)cc1,"29.1 µM [falling, single point]",–
Cc1ccccc1NC(=O)/C=C/c1ccc([N+](=O)[O-])s1,"6.51 µM [falling, partial curve]",–
CCOC(=O)Cc1csc(NS(=O)(=O)c2ccc3c4c(cccc24)C(=O)N3CC)n1,"35.5 µM [rising, single point]",–
Cc1csc(SCC(=O)Nc2sccc2C#N)n1,"7.08 µM [falling, partial curve]",–
COc1ccc(-c2cc(C(=O)NCCc3ccc(S(N)(=O)=O)cc3)c3ccccc3n2)cc1,"7.08 µM [rising, partial curve, poor fit]",–

Structure (SMILES),AC50 [1],AC50 [2]
COC(=O)c1cc(NC(=O)CSC2=NCCS2)cc(C(=O)OC)c1,"15.8 µM [falling, single point]",–
CCOc1cccc(C(=O)NC(c2ccccc2)C(C)C)c1 (stereo unspecified),"6.31 µM [rising, single point]",–
Cc1ccc2oc(-c3ccccc3)nc2c1,"29.1 µM [rising, single point]",–
Cc1c(NC(=O)c2noc(C(C)C)c2[N+](=O)[O-])c(=O)n(-c2ccccc2)n1C,"25.9 µM [falling, single point]","20.6 µM [rising, partial curve, poor fit]"
CC(=O)Nc1ccc(Nc2ncnc3c2cnn3-c2cccc(C)c2)cc1,"5.17 µM [falling, partial curve, poor fit]",–
CC1CN(C(=O)Nc2cccc(Cl)c2)C2(CCCCCC2)O1 (stereo unspecified),"12.6 µM [rising, partial curve, poor fit]",–
C=C(C)CN(CC)C(=O)c1ccc(OC2CCN(S(=O)(=O)N(C)C)CC2)cc1,"12.6 µM [rising, partial curve, poor fit]",–
COc1ccc(Nc2nc(Cl)nc(Nc3ccc(OC)cc3OC)n2)c(OC)c1,"0.631 µM [falling, partial curve, poor fit]",–
CCC1Nc2ncnc(N3CCc4ccccc4C3)c2N(Cc2ccc(Cl)cc2)C1=O (stereo unspecified),"29.1 µM [falling, single point]",–
CCOC(=O)C1(CCOc2ccccc2)CCN(Cc2cnc(C)s2)CC1,"5.62 µM [rising, partial curve]",–
COc1ccc(CNC(=O)CN2N=C(c3ccc(Cl)cc3)CCC2=O)cc1,"2.51 µM [falling, full curve, poor fit]",–
N#CCN1C(=S)N=C(Nc2cccc(Cl)c2)C12CCCCC2,"3.98 µM [rising, full curve, poor fit]","4.47 µM [falling, partial curve, poor fit]"
COc1ccc(C(=O)Nc2nc(C)c3cc4c(cc3n2)OCO4)cc1,"4.61 µM [falling, full curve, poor fit]",–
CCc1ccc2c(CC(=O)Nc3nnc(C4CC4)s3)coc2c1,"17.8 µM [rising, single point]",–
COc1cccc2sc(N(CCCN(C)C)C(=O)c3ccc(S(=O)(=O)N4CCc5ccccc5C4)cc3)nc12,"35.5 µM [falling, single point]",–
Nc1c(C(=O)N/N=C/c2cccnc2)cnn1-c1ccccc1,"2.31 µM [falling, single point]",–
CC(=NC1CCCC1)c1c(C)[nH]n(-c2nc3ccccc3s2)c1=O,"0.355 µM [rising, full curve, poor fit]",–
c1ccc(CC2CCN(C3=Nc4cccc5cccc3c45)CC2)cc1,"2 µM [rising, full curve, poor fit]",–
COc1cc(CNc2ccc(O)cc2)cc(Br)c1OCc1ccccc1,"1.41 µM [rising, partial curve, poor fit]",–
COc1ccc(-c2cc(C(=O)NN)[nH]n2)cc1OC,"14.1 µM [rising, single point]","17.8 µM [falling, partial curve]"
Cc1cc(C)cc(OCC(=O)O/N=C(\N)c2ccccc2Cl)c1,"1.12 µM [rising, full curve, poor fit]",–

# Reformatted bar-delimited: part of the list above.
Structure (SMILES) | AC50 [1] | AC50 [2]
C=C(C)CN(CC)C(=O)c1ccc(OC2CCN(S(=O)(=O)N(C)C)CC2)cc1 | 12.6 µM [rising, partial curve, poor fit] | –
COc1ccc(CNC(=O)CN2N=C(c3ccc(Cl)cc3)CCC2=O)cc1 | 2.51 µM [falling, full curve, poor fit] | –
COc1cc(CNc2ccc(O)cc2)cc(Br)c1OCc1ccccc1 | 1.41 µM [rising, partial curve, poor fit] | –
